Measurements reported in the supplement of paper PMC12819154, “High-throughput peptide-centric local stability assay extends protein–ligand identification to membrane proteins, tissues and bacteria” (Nature Structural & Molecular Biology, 2025).
The other results are listed elsewhere or left out. Most values lie at the level of the controls, where differences are scatter.

Amino acid sequences for entries named in this document (tags omitted). A change or cut given only in a name is not applied to a line headed by its entry.
UniProt Q9Y4F5: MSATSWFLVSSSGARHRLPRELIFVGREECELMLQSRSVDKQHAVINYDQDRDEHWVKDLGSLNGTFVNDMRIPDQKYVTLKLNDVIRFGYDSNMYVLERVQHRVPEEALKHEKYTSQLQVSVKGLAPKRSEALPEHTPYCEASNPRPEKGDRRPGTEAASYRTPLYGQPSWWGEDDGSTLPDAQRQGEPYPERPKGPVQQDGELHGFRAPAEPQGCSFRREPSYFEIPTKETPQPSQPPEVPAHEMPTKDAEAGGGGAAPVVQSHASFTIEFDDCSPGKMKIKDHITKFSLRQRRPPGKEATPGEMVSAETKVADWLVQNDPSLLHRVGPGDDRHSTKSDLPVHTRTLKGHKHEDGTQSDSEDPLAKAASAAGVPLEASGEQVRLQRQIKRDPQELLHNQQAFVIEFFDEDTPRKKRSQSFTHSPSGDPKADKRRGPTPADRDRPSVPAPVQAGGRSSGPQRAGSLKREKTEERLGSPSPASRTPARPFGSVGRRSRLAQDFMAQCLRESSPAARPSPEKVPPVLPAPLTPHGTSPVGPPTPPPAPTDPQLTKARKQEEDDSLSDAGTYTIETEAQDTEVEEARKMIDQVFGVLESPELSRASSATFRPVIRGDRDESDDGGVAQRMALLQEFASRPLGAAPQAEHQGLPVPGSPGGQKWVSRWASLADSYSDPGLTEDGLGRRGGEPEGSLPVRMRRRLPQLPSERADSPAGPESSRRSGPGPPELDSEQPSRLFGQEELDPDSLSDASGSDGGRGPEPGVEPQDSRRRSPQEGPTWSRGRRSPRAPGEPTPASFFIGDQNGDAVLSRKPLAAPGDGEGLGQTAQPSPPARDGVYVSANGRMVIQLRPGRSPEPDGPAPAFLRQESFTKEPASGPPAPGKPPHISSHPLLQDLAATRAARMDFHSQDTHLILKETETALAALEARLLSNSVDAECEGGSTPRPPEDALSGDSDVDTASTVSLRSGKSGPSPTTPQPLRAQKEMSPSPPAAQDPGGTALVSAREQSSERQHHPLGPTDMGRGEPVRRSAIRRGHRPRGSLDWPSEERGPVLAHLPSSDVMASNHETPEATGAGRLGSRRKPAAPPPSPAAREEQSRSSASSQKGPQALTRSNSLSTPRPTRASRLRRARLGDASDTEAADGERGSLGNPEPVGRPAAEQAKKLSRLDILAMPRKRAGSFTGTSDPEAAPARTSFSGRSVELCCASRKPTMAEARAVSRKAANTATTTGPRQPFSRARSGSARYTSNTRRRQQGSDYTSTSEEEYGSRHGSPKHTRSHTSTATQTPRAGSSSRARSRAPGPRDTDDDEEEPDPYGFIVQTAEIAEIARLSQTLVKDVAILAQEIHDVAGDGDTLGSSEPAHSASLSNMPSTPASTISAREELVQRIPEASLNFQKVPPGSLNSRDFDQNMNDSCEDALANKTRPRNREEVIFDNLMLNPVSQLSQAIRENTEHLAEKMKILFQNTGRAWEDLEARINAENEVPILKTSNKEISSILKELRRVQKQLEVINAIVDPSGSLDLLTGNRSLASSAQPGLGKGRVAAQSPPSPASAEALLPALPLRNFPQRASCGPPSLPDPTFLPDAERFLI
UniProt Q9Y6U3: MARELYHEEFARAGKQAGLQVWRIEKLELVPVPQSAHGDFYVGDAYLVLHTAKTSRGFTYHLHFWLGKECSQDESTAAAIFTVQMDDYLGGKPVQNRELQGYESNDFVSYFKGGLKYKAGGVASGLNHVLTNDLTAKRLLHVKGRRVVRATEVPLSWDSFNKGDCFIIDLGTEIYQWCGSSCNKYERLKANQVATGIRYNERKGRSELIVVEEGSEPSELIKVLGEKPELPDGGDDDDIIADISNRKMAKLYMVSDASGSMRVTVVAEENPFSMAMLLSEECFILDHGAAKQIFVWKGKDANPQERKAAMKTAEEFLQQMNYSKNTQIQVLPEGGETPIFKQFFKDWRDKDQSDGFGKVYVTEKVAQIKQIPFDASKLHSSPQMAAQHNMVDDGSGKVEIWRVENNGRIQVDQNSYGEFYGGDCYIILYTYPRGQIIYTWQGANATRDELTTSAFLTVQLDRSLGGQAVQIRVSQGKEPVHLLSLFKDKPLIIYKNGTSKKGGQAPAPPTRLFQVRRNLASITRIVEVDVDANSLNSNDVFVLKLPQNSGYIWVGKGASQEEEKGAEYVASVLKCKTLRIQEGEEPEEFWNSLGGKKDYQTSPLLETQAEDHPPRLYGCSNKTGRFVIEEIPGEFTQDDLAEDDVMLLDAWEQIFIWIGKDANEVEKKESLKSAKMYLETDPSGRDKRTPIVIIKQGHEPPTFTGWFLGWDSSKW
UniProt Q9Y3C7: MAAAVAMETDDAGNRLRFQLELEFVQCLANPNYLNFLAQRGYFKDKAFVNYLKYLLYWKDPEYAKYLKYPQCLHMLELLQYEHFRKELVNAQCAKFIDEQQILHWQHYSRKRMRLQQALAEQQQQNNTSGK
UniProt Q9Y4C1: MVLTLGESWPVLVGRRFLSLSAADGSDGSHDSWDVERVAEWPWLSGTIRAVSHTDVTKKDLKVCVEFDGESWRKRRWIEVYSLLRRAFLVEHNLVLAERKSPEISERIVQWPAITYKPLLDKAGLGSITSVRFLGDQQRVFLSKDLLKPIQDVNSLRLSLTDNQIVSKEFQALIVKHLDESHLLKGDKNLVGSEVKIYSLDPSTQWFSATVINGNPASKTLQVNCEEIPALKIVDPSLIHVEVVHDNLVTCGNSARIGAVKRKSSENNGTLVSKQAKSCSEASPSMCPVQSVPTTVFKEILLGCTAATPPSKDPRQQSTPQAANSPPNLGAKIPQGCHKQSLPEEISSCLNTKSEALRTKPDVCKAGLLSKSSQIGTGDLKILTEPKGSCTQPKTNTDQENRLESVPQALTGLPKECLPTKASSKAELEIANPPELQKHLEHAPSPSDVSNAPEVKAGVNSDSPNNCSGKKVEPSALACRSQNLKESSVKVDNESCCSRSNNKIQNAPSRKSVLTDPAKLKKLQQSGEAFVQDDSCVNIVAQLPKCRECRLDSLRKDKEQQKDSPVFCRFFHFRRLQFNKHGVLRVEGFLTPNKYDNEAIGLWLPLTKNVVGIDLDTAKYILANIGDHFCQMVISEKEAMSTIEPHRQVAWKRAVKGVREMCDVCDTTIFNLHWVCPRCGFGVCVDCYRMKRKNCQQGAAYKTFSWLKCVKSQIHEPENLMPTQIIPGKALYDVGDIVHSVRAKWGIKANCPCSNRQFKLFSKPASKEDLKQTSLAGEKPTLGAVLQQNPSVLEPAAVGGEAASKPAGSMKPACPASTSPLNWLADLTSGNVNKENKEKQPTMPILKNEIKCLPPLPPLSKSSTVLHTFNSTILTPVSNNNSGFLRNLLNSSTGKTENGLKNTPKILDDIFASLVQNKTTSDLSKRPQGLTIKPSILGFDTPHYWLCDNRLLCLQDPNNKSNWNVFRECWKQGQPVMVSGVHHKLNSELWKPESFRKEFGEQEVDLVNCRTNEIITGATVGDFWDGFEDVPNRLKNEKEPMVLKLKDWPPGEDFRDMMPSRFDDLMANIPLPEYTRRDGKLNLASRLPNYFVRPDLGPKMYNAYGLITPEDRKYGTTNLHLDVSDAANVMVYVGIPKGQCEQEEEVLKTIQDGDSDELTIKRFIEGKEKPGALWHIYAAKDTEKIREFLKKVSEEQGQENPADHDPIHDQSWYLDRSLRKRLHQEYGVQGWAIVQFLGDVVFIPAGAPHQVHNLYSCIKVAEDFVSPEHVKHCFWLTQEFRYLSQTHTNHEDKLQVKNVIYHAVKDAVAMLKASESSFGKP
UniProt Q9Y295: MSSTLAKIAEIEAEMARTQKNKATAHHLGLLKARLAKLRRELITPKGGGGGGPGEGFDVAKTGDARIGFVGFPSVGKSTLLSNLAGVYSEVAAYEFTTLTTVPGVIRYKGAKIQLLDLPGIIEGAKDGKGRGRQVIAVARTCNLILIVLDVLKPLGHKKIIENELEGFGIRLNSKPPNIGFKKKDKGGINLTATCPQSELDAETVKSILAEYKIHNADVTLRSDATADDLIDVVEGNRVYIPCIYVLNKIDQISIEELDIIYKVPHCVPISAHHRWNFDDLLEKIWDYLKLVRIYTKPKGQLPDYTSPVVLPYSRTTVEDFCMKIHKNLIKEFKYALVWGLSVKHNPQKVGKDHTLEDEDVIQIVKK
UniProt Q9Y592: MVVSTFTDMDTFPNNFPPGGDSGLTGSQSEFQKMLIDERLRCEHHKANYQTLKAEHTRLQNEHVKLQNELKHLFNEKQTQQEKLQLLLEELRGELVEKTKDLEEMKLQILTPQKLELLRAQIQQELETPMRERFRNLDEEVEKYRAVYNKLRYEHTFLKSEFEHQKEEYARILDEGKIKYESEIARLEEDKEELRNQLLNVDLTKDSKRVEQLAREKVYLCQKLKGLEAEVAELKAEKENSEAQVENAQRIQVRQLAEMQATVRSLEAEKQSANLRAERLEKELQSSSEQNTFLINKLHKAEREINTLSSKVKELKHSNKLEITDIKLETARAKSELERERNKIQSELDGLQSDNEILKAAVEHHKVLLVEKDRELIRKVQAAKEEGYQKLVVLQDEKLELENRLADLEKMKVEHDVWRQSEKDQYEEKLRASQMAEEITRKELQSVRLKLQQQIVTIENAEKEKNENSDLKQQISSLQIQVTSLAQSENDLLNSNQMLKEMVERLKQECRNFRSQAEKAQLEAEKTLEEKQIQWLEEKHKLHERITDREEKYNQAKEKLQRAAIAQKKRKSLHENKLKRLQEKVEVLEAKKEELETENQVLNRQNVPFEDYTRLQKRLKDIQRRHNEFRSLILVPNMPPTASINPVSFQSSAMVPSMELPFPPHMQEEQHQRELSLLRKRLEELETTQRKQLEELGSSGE
UniProt Q9Y4F3: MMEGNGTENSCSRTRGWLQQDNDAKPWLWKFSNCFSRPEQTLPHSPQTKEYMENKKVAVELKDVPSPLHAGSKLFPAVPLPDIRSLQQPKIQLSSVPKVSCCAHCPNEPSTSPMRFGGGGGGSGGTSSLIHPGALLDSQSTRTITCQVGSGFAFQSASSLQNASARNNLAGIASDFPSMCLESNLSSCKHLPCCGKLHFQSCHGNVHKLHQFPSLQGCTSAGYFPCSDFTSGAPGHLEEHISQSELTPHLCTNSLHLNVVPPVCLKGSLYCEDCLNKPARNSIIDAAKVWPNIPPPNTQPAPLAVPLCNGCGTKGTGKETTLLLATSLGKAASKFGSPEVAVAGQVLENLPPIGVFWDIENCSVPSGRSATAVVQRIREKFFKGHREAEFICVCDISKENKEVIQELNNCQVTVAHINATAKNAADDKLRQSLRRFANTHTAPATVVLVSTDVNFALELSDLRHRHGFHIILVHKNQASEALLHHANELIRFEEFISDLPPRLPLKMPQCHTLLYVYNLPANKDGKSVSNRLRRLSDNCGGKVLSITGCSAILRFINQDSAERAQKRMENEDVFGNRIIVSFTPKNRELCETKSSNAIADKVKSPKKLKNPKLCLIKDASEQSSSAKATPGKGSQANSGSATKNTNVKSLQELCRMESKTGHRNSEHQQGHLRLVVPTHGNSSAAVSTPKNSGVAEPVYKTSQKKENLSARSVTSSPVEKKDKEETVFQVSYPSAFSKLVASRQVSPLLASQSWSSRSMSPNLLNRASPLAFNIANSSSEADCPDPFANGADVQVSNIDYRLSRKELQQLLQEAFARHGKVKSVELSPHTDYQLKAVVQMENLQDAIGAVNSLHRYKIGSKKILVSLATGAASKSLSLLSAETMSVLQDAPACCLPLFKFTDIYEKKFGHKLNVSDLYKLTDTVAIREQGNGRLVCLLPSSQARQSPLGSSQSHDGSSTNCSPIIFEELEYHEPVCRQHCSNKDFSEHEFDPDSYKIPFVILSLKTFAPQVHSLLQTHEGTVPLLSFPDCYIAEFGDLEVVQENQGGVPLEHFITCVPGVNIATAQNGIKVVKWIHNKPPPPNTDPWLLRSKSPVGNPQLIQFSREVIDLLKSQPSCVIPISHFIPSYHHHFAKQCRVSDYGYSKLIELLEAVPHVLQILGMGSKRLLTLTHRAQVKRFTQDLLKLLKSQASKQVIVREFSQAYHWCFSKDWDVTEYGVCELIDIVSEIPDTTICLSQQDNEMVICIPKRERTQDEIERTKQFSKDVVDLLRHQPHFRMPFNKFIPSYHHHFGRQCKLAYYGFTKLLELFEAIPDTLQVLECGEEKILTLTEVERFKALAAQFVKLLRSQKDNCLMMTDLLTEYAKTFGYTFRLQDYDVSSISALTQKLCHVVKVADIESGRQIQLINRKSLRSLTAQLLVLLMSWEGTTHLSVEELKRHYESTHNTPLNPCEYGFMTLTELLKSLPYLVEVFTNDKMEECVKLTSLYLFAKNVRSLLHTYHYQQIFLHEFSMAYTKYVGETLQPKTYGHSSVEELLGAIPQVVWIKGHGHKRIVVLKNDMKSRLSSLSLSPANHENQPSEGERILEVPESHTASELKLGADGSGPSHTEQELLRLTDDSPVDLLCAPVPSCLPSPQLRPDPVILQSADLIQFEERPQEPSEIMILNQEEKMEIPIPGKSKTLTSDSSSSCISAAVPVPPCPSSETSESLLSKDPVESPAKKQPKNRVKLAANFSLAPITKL

Each target was assayed with Cc1nc(Nc2ncc(C(=O)Nc3c(C)cccc3Cl)s2)cc(N2CCN(CCO)CC2)n1 [dasatinib] (assay: log2 fold change of tryptic peptide abundance, ligand vs vehicle (limited proteolysis) (log2 ratio); higher = more trypsin-susceptible (destabilized)). Details: ligand concentration: 5 uM; sample: K562 cleared lysate.
“CEP170B (peptide sequence: LDILAMPR, peptide start residue: 1167) (UniProt Q9Y4F5)” gave a log2 fold change of -0.251.
“SCIN (peptide sequence: GKDANPQER, peptide start residue: 298) (UniProt Q9Y6U3)” gave a log2 fold change of 0.555.
Work on “MED31 (peptide sequence: FIDEQQILHWQHYSR, peptide start residue: 96) (UniProt Q9Y3C7)” yielded a log2 fold change of -0.0769.
“UniProt Q9Y4E1 (peptide sequence: DNDPDVDLFAGTKK, peptide start residue: 854)” showed a log2 fold change of 0.299.
“UniProt Q9Y4C1 (peptide sequence: LSLTDNQIVSK, peptide start residue: 158)” was tested, and the log2 fold change was -1.03.
For “RBM7 (peptide sequence: LYGRPIKIQFR, peptide start residue: 75) (UniProt Q9Y580)”, the log2 fold change was -0.454.
“SNX13 (peptide sequence: KMDTFVNPLR, peptide start residue: 699) (UniProt Q9Y5W8)” was tested, and the log2 fold change was 0.44.
For “SNX5 (peptide sequence: NLIEMSELEIKHAR, peptide start residue: 375) (UniProt Q9Y5X3)”, the log2 fold change was -0.477.
With “DLGAP4 (peptide sequence: DKASDASDKQR, peptide start residue: 943) (UniProt Q9Y2H0)” the log2 fold change was -0.449.
Work on “MRPL11 (peptide sequence: IGQPTVSYFLK, peptide start residue: 82) (UniProt Q9Y3B7)” yielded a log2 fold change of 0.112.
“SUPT16H (peptide sequence: EGIVKQDSLVINLNR, peptide start residue: 643) (UniProt Q9Y5B9)” was tested, and the log2 fold change was 0.374.
Work on “DRG1 (peptide sequence: NKATAHHLGLLK, peptide start residue: 21) (UniProt Q9Y295)” yielded a log2 fold change of -0.407.
“UniProt Q9Y312 (peptide sequence: DRVGQNLPR, peptide start residue: 172)” gave a log2 fold change of 0.0571.
Target “UniProt Q9Y592 (peptide sequence: QNVPFEDYTR, peptide start residue: 605)” has a log2 fold change of 0.145.
“CD2AP (peptide sequence: DLEEEKTMR, peptide start residue: 614) (UniProt Q9Y5K6)” showed a log2 fold change of 1.24.
For “UniProt Q9Y4F3 (peptide sequence: LFPAVPLPDIR, peptide start residue: 74)”, the log2 fold change was -0.331.
